## Library screen at single concentrations

The chains behind the UniProt entries cited, without tags or fusion partners. Residues count along the entry.
UniProt Q4DA54, 1-478: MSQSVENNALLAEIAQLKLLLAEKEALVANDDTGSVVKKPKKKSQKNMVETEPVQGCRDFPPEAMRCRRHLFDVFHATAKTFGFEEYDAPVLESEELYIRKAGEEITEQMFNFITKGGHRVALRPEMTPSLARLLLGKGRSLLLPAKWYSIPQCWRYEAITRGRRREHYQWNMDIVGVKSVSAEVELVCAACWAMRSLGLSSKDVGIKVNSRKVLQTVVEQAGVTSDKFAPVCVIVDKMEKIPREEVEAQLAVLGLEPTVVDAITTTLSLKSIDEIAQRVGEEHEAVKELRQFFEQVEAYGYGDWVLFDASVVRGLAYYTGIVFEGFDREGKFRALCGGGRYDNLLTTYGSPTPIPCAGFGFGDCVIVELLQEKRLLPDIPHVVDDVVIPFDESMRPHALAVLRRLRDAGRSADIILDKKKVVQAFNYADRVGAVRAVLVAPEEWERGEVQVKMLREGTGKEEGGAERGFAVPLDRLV
UniProt P9WNZ1, whole entry: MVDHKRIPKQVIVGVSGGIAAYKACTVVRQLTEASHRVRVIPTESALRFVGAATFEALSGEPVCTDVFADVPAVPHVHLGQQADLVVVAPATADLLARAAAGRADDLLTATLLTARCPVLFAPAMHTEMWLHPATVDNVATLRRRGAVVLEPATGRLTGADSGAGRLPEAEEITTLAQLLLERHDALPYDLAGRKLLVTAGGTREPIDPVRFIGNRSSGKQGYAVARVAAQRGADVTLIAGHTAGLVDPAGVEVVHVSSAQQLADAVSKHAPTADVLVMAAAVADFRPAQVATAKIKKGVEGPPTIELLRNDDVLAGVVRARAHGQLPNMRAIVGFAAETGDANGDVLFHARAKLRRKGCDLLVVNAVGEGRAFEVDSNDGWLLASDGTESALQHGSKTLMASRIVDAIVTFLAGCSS

Measurements from “University of Dundee, Small-Polar-MMV Screening Library” (2021), ChEMBL document CHEMBL3988442.

Toxoplasma: 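Assay of Toxoplasma gondii numbers, read through their beta-galactosidase reporter with a colour substrate. Compounds at 10 µM. Higher reads as fewer parasites (inferred from which compounds were picked for retests). About 67,000 compounds were tested under these conditions; 0.38% (about 260) showed 50% or more at least once.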
TcHisRS: 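Histidine-tRNA ligase, Trypanosoma cruzi CL Brener (UniProt Q4DA54). Enzyme assay of histidyl-tRNA synthetase; the read-out is not stated. Compounds at 30 µM. The record gives no direction; compounds that gave an IC50 in retests scored well above the rest, so higher reads as stronger inhibition. About 69,000 compounds were tested under these conditions; 0.045% (about 31) showed 50% or more at least once.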
CoaBC: 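Coenzyme A biosynthesis protein CoaBC, Mycobacterium tuberculosis (UniProt P9WNZ1). Enzyme assay of CoaBC with a phosphate dye (Biomol Green) read at 650 nm. Tested at 30 µM. Direction is inferred from only a few compounds that gave an IC50; most scored high, so higher reads as stronger inhibition. Most strong results did not repeat in a second test. About 67,000 compounds were tested under these conditions; 0.06% (about 40) showed 50% or more at least once.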
Leishmania in macrophages: 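Cell assay of Leishmania donovani living inside macrophages; the read-out is not stated. Tested at 30 µM. Higher reads as stronger inhibition (inferred: compounds with an IC50 in retests scored well above the rest). About 69,000 compounds were tested under these conditions; 1.5% (about 1,000) showed 50% or more at least once.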

Values are the deposited “Percent Effect”, in %. The controls that fix the scale are not given in the record; negative values are as filed. Compounds were drawn at random from those tested, without regard to their results. A dash means the value is not listed here; it may have been measured.

Compound	Toxoplasma	TcHisRS	CoaBC	Leishmania in macrophages
[H][C@]12CCN(C(=O)c3ccccc3)C[C@@]1([H])OCCN(C(C)=O)C2	1.708	-	-	8.177
COCc1nc(C(=O)NS(=O)(=O)c2ccc(C)cc2C)cs1	-6.992	1.527	-2.591	9.091
O=C(c1cc(COc2ccc3c(c2)OCO3)[nH]n1)N1CCCC(O)C1 (centres unmarked)	0.1003	4.082	-3.758	29.18
CCN1CC2(CC1=O)CN(C(=O)C(C)C)CCN(S(=O)(=O)CC)C2 (centres unmarked)	3.891	0	7.536	11.92
Cc1cccc(CN2CCc3nnc(Cn4cccc4)n3CC2)n1.O=C(O)C(F)(F)F	0.7027	-	-	36.43
Cc1cc(C(=O)N(C)C2CCS(=O)(=O)C2)c2ccc(F)cc2n1 (centres unmarked)	-14.52	7.143	2.334	-4.385
Cc1cccc(CN2C[C@@H]3OCCN(C)[C@@H]3C2)n1	-	2.151	4.44	-
CN(C)C(=O)CN1CCC2(COCc3cnc(-c4cccnc4)nc32)C1.O=C(O)C(F)(F)F.O=C(O)C(F)(F)F (centres unmarked)	-62.3	-	-	71.1
Cc1nnc(NC(=O)CN2CCOC(Cn3cccn3)C2)s1 (centres unmarked)	0.4632	-0.8403	0.216	25.52
CC(=O)N1CCCN(C(C)C(=O)Nc2ccnn2C(C)C)CC1 (centres unmarked)	-2.136	1.087	0.6048	19.66
O=C(Cc1ccc(F)cc1)NCCc1ccoc1	-7.042	-1.111	7.563	14.55
Cc1noc(-c2ccc(N3CCC[C@H]3CO)nc2)n1	-10.12	0	7.143	-23.82
O=C1c2cccnc2OC(CN2CCOCC2)CN1C1CCC1 (centres unmarked)	27.26	3.468	2.577	10.01
O=C(O)C(F)(F)F.[H][C@@]12CN(C(=O)C3(C#N)CC3)C[C@]1([H])C(=O)N(Cc1csc(C)n1)C2	-2.288	-	-	6.269
O=C(NCCN1CCCC1)C1(c2ccc(Cl)cc2)CCOCC1	4.147	3.226	-1.842	-1.452
Cc1cc2nc(C(C)C)cc(N[C@H](C(N)=O)C(C)C)n2n1	-3.162	1.01	-2.046	-10.99
CC(C)CCN1CN=C(NS(=O)(=O)c2ccc(F)cc2)NC1	-4.423	-1.639	9.287	6.713
CC(=O)c1cnc(N(C)Cc2cc(C)cc(C)n2)nc1C	-40.16	4.663	3.928	16.43
O=C(Cn1cnnn1)NCC1(O)CCCc2ccccc21 (centres unmarked)	-6.542	8.671	-0.4963	-40.27
CC(C)c1ccc(CCC(=O)N2CCOCC2c2ncon2)cc1 (centres unmarked)	-18.28	-1.754	-1.786	20.97
Cc1ccc(-c2nc(CN3CCn4c(nnc4C4CC4)C3)cs2)o1	-2.18	6.107	-0.2591	9.917
CCN1CCC(NC(=O)CN2CCc3c(nc(C4CC4)n3C)C2)CC1	-0.9529	-0.7634	3.373	27.15
CCN1CCCN(S(=O)(=O)c2cnc3onc(C)c3c2)CC1	-5.871	9.278	-19.58	-2.404
Cn1ccnc1CN1CCN(CCOc2ccccc2F)CC1	-2.421	-1.156	5.346	-2.744
COCC(NC(=O)c1ccco1)c1cccc(C(F)(F)F)c1 (centres unmarked)	22.8	0.4484	5.838	8.193
[H][C@@]12CS(=O)(=O)C[C@]1([H])N(C(=O)c1csc(C)n1)CCN2C(=O)C1CCC1	-7.751	-	-	11.82
CCN1CCCCC1C(=O)N1CCc2onc(-c3ccc(Cl)cc3)c2C1 (centres unmarked)	-4.94	7.514	-2.481	5.01
COCCOc1cccc(C(=O)N2CCCC(n3ccnc3)C2)c1 (centres unmarked)	-11.23	3.488	12.94	21.84
CS(=O)(=O)N1CCC2(CCN(C(=O)c3cccs3)CC2)CC1	-28.54	6.533	3.837	-6.369
CCc1nc(C2CCCN(C(=O)c3ccccc3O)C2)no1 (centres unmarked)	0.9253	3.509	-2.041	11.89
Cc1cccc(C(=O)N2CCC3(CC2)CC(c2ccccc2)C(=O)N3)c1 (centres unmarked)	0.4507	0.9804	9.772	-2.835
CCN1CCC(CNC(=O)C(c2ccc(F)cc2)N(C)C)(N(C)C)CC1 (centres unmarked)	-1.079	7.006	-	10.95
COCC1CN(Cc2csc(C)n2)Cc2nccn2C1.O=C(O)C(F)(F)F (centres unmarked)	-4.735	-	-	4.912
N#Cc1ccccc1N1CC2(CCCCN2CC2CC2)CC1=O (centres unmarked)	-	1.604	6.25	-
CC(C)C(C)N(C)C(=O)COc1ccccc1C#N (centres unmarked)	17.09	-0.9901	2.427	7.364
[H][C@@]12CCN(C(=O)c3c(C)noc3C)C[C@@]1([H])O[C@H](c1nccs1)C2	-0.2161	-	-	-0.1774
CC1CCCCN1CCNC(=O)c1scnc1Cl (centres unmarked)	8.129	3.468	5.867	7.583
Cc1nccn1CCCC(=O)N1CCC(N(C)c2cccnn2)CC1	5.115	4.298	9.565	13.43
O=C(CCn1cncn1)NC1CCc2nccn2C1 (centres unmarked)	-5.721	-12.14	2.682	22.32
CCc1nnc(CN(CC)C(=O)C(C)n2ccnc2C(C)C)o1 (centres unmarked)	-11.71	2.488	-1.975	12.57
COc1ccc(S(=O)(=O)N2CCOC[C@H](Oc3cnccn3)C2)cc1	6.817	-2.488	8.055	24.7
CC(=O)C(Cc1ccccc1)NC(=O)CSc1nccn1C1CC1 (centres unmarked)	-15.9	9.278	2.857	7.269
COCCS(=O)(=O)NCC(C)c1cccc(C)c1 (centres unmarked)	8.042	2.762	11.44	19.48
O=C(Cn1ncc2c(c1=O)CCCC2)Nc1cccc2[nH]ccc12	8.427	7.216	0	-8.694
COc1ccc(CCNC(=O)C(C)Nc2cccc(C)c2C)cc1 (centres unmarked)	2.386	5	-1.556	-13.08
c1cc(CN2C[C@H](OCC3CCOCC3)[C@H]3COC[C@H]32)cs1	-	3.315	1.733	-
O=C(NC[C@H]1C[C@@H]2CCN1C[C@@H]2CN1CCCC1)c1ccco1	-	0	-13.91	-
N#Cc1cccc(N2CCCC3(CNCCO3)C2)n1 (centres unmarked)	-	2.532	-	-
Cn1ccnc1CN1CCC2(CC1)CC(N1CCCC1)c1ccccc12 (centres unmarked)	6.625	1.111	3.171	-8.251
O=C(O)C(F)(F)F.[H][C@]12CCC[C@@H](CNc3ncccn3)[C@@]1([H])CN(Cc1cc[nH]n1)C2	3.453	-	-	34.75
COCC(=O)N1CC[C@@H](OCC2CC2)[C@@H]1Cc1cccnc1	-	7.463	1.935	-
CCS(=O)(=O)CCN(C)C(=O)NC(C)c1ccc(C)s1 (centres unmarked)	-12.38	6.25	3.435	19.11
Cc1cc(N(Cc2ccccn2)C2CC2)n2nc(C(F)(F)F)nc2n1	0.7609	5.155	10.33	6.215
CCc1cc(C(=O)N2CCC(O)(Cn3ccc4ccncc43)CC2)no1	14.25	5.993	-3.098	28.52
CCC(=O)N1CCc2[nH]cnc2C12CCN(C(=O)c1snnc1C)CC2	-3.744	1.245	6.25	24.67
CC(C)C(=O)N1CC[C@H]2N(C)CC[C@@]2(C(=O)N2CCOCC2)CC1	-	4.854	-0.6435	-
[H][C@@]12C[C@H](C)O[C@]1([H])CCN(C(=O)c1occc1C)C2	-1.282	-	-	14.81
Cc1cncc(NCC(O)c2ccco2)n1 (centres unmarked)	-2.53	7.447	1.205	11.64
NC(=O)NC(=O)CCSCc1coc(-c2cccc(Cl)c2)n1	6.83	8	6.777	1.349
Cc1ccc(C)c(OC(C)C(=O)NCc2cccnc2)c1 (centres unmarked)	-11.61	3.261	3.024	16.24
N#Cc1cc(C#N)c(SCCC(=O)Nc2ccc(F)cc2)nc1N	-1.674	-3.261	-9.073	22.6
CCc1nccn1C1CCCN(C(=O)COCC(F)(F)F)C1 (centres unmarked)	-5.085	2.353	1.279	8.983
CNS(=O)(=O)CC(=O)NCc1cc2c(s1)CCCCC2	2.754	0.5525	1.656	-12.82
CCOCc1nc2c(c(NC(CC)c3ccncc3)n1)CCNCC2 (centres unmarked)	-4.715	5.319	-5.622	14.87

6 of the entries, repeated:

{"compound": "O=C1c2cccnc2OC(CN2CCOCC2)CN1C1CCC1", "stereo": "centres unmarked", "Toxoplasma": 27.26, "TcHisRS": 3.468, "CoaBC": 2.577, "Leishmania in macrophages": 10.01}
{"compound": "CCOCc1nc2c(c(NC(CC)c3ccncc3)n1)CCNCC2", "stereo": "centres unmarked", "Toxoplasma": -4.715, "TcHisRS": 5.319, "CoaBC": -5.622, "Leishmania in macrophages": 14.87}
{"compound": "Cc1noc(-c2ccc(N3CCC[C@H]3CO)nc2)n1", "Toxoplasma": -10.12, "TcHisRS": 0, "CoaBC": 7.143, "Leishmania in macrophages": -23.82}
{"compound": "CCS(=O)(=O)CCN(C)C(=O)NC(C)c1ccc(C)s1", "stereo": "centres unmarked", "Toxoplasma": -12.38, "TcHisRS": 6.25, "CoaBC": 3.435, "Leishmania in macrophages": 19.11}
{"compound": "Cc1ccc(-c2nc(CN3CCn4c(nnc4C4CC4)C3)cs2)o1", "Toxoplasma": -2.18, "TcHisRS": 6.107, "CoaBC": -0.2591, "Leishmania in macrophages": 9.917}
{"compound": "O=C(NC[C@H]1C[C@@H]2CCN1C[C@@H]2CN1CCCC1)c1ccco1", "TcHisRS": 0, "CoaBC": -13.91}